# PubChem BioAssay AID652243, Drosophila RNAi Screening Center – 2013
# Screen: 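Fly regulators of androgen-dependent reporter output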 (primary screen)
# Cells: Drosophila S2R+ cells
# Knock-down reagent: long dsRNA against Drosophila genes
# Duration: 72 h (48 h, then 24 h hormone)
# Treatment: synthetic androgen R1881 at 10 nM for 24 h
# Measurement: 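Per-well raw luminescence of the androgen-driven firefly reporter and of the Renilla control, two replicates each, without normalisation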
# Reading the numbers: firefly reporter light: higher = more light from androgen-responsive reporter; Renilla control light: higher = more constitutive control signal (cell number, transfection)
# Call rule: 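Hit when the log firefly-to-Renilla ratio dropped or increased by a fixed fold versus the mean of GFP or LacZ controls across duplicate plates; lowering cut given as 1.5 and as 3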
# Calls: active = hit: reporter lowered or raised; inactive = no hit
# The deposit covers about 24,000 reagents; shown is a random part of those that have a named target and a result. In the full data, 246 (1%) are marked active. 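Plates not normalised; calls are printed but the firefly/Renilla ratio behind them is not deposited; fold cut for lowering reported inconsistently.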 Raw values are not corrected between plates. Not stated in the record: the amount of reagent.
gene,amplicon,"firefly reporter light, replicate 1","firefly reporter light, replicate 2","Renilla control light, replicate 1","Renilla control light, replicate 2",outcome
CG5697,DRSC23479,7.55e5,9.62e5,6.76e5,9.13e5,inactive
CG14811,DRSC17962,4.26e5,3.64e5,4.31e6,4.22e6,inactive
bip1,DRSC11327,6.67e5,5.49e5,1.49e6,1.17e6,inactive
CG14088,DRSC10092,2.67e5,2.33e5,2.63e6,2.71e6,inactive
CG4678,DRSC19911,4.86e5,5.18e5,3.16e6,2.68e6,inactive
CG4678,DRSC19912,5.61e5,5.27e5,3.27e6,3.20e6,inactive
CG31922,DRSC21703,7.09e5,7.33e5,2.40e6,2.47e6,inactive
CG31922,DRSC26533,3.06e5,2.14e5,5.00e5,6.93e5,inactive
Actn (alpha actinin),DRSC17724,75122,64978,5.62e5,4.22e5,inactive
Actn (alpha actinin),DRSC25653,5.60e5,5.76e5,1.07e6,9.26e5,inactive
CG9101,DRSC20152,2.12e5,2.27e5,1.77e6,1.54e6,inactive
CG9101,DRSC27575,4.68e5,3.92e5,8.57e5,5.82e5,inactive
CG15435,DRSC00450,85589,83283,7.06e5,7.15e5,inactive
CG15435,DRSC27701,2.08e5,2.20e5,4.94e5,6.77e5,inactive
Gs2 (Glutamine synthetase 2),DRSC20250,3.77e5,3.97e5,4.46e6,4.84e6,inactive
Gs2 (Glutamine synthetase 2),DRSC26818,3.17e5,3.06e5,5.06e5,3.88e5,inactive
CG15554,DRSC15092,1.62e5,1.77e5,2.04e6,1.96e6,inactive
Hsdl2 (Hydroxysteroid dehydrogenase like 2),DRSC15839,75153,78741,5.37e5,5.93e5,inactive
Hsdl2 (Hydroxysteroid dehydrogenase like 2),DRSC28075,5.52e5,6.82e5,1.30e6,1.50e6,inactive
CG43755,DRSC00012,1.56e5,2.59e5,3.10e5,4.34e5,inactive
CG12483,DRSC08278,1.44e5,1.25e5,1.50e6,1.47e6,inactive
CG40298,DRSC22274,4.92e5,5.92e5,1.51e6,1.36e6,inactive
CG2993,DRSC14284,1.39e5,99366,2.39e6,2.07e6,inactive
CG2993,DRSC15457,24645,16200,2.92e5,3.68e5,inactive
CG2993,DRSC29995,5.56e5,5.76e5,1.22e6,1.39e6,inactive

A portion from the list above, for reference:
gene,amplicon,"firefly reporter light, replicate 1","firefly reporter light, replicate 2","Renilla control light, replicate 1","Renilla control light, replicate 2",outcome
Gs2 (Glutamine synthetase 2),DRSC26818,3.17e5,3.06e5,5.06e5,3.88e5,inactive
CG15554,DRSC15092,1.62e5,1.77e5,2.04e6,1.96e6,inactive
